In article PMC9635925, “Biological screening of a unique drug library targeting MRGPRX2” (Frontiers in Immunology, 2022):
Positions count from the first letter of the chain named.

What was measured:
[1] = target: T1, MRGPRX2-WT (wild-type MRGPRX2 receptor) (Homo sapiens, UniProt Q96LB1); assay: Primary HTS, Ca2+ mobilization (fluorescence ratio, B-score) in HEK293-Gα15 cells stably expressing wild-type MRGPRX2; type: cell-based; settings: 10 μM compound, Supplementary Table 1
T1 construct: expressed in transfected cells
T1 sequence (Q96LB1 1-330): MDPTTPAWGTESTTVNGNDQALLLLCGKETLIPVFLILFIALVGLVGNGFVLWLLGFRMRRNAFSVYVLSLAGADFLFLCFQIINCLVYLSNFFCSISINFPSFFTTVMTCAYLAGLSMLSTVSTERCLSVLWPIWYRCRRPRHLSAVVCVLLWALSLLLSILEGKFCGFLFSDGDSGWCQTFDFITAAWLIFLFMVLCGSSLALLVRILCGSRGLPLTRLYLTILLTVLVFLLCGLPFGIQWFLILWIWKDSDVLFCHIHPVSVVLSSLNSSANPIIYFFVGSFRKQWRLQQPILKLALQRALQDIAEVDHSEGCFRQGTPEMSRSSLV
Procedure: (§1) We performed an experimental HTS on the Johns Hopkins Drug Library, which includes 1,811 (57%) FDA-approved drugs among 3,456 total compounds (28% of all known drugs worldwide) ([15]). We performed the HTS at the Johns Hopkins University ChemBioCORE Facility and employed HEK293-Gα15 cell lines that stably expressed MRGPRX2 protein.
(§2) We utilized 10 μM compounds (each compound was tested in triplicate) and calculated the compound effect using the signal-to-background fluorescence ratio (see Supplementary Methods).
(§3) In the HTS, we determined MRGPRX2 activation by a Ca^2+ mobilization assay that recorded a fluorescence change by utilizing a Functional Drug Screening System (FDSS 6000; Hamamatsu); we evaluated the compound effect using the calculated fluorescence ratio. We further applied the B-score normalization, which provided robust corrections for variation in fluorescence ratio ([22]).
(§4) We performed an experimental high-throughput screening (HTS) on the Johns Hopkins Drug Library (JHDL), which includes 1,811 (57%) FDA-approved drugs among 3,456 total compounds (28% of all known drugs worldwide). […] We evaluated compound effect using the calculated fluorescence ratio. We further calculated B-scores, which are a relative potency score similar to Z scores in that they are the ratio of an adjusted raw value in the numerator to a measure of variability in the denominator.

[2] = target: T2, MRGPRX2-MUT (MRGPRX2 N62S mutation) (Homo sapiens, UniProt Q96LB1, N62S); assay: Primary HTS, Ca2+ mobilization (fluorescence ratio, B-score) in HEK293-Gα15 cells stably expressing the MRGPRX2 N62S mutation; type: cell-based; settings: Supplementary Table 1
T2 construct: expressed in transfected cells
T2 sequence (Q96LB1 1-330 N62S): T1 sequence (Q96LB1 1-330) with N62S
Procedure: as §1, §2, §3, §4

## COc1ccc(CC(C)NCC(O)c2ccc(O)c(NC=O)c2)cc1 (stereo not drawn) [Formoterol]
[1]
  B-scores (WT): 46.02
[2]; 10 μM compound, MRGPRX2-MUT (N62S) cells
  B-scores (MUT): 17.88
[2]; MRGPRX2-MUT in comparison to MRGPRX2-WT cells, 10 μM
  Change of B-scores (%): -61.14%
